# Data from the supplement of paper PMC4604168 (melanoma cell lines).
# The list shows a part of the results. Repeats are few or missing, and single values can be far off.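 The apoptosis fraction was the count of cleaved-PARP antibody-stained nuclei relative to all DNA-stained nuclei, imaged in 1,536-well plates. Screening doses were set so most cells survived, and baseline and induced cleaved-PARP levels vary greatly across cell lines.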
# Test system: A375
# Test: cleaved PARP positive nuclei fraction relative to DMSO control; melanoma cells; higher = more apoptosis
# Settings: library dose: low library concentration; 72 h
row,SMILES,cleaved PARP positive nuclei fraction [%]
1,"CCCCCCCCCCCCCCCCCCOP(=O)([O-])OC1CC[N+](C)(C)CC1 [Perifosine] + NCC(=O)Nc1ccc(-n2nc(C(F)(F)F)cc2-c2ccc3c(ccc4ccccc43)c2)cc1 [OSU03012] (first compound 0.4 µM, partner dose 1 µM)",9070
2,"CCCCCCCCCCCCCCCCCCOP(=O)([O-])OC1CC[N+](C)(C)CC1 [Perifosine] + O=C(Nc1cccc(Cl)c1)Nc1ncc(CCNc2ncnc3ccsc23)s1 [SNS314] (first compound 0.4 µM, partner dose 0.0008 µM)",78.3
3,"O=C(/C=C/c1cccnc1)NCCCCC1CCN(C(=O)c2ccccc2)CC1 + Cc1cc(N2CCOCC2)cc2[nH]c(-c3c(NC[C@@H](O)c4cccc(Cl)c4)cc[nH]c3=O)nc12 [BMS536924] (first compound 0.01 µM, partner dose 0.2 µM)",235
4,"COc1cc([C@@H]2c3cc4c(cc3[C@@H](O[C@@H]3O[C@@H]5CO[C@@H](C)O[C@H]5[C@H](O)[C@H]3O)[C@H]3COC(=O)[C@H]23)OCO4)cc(OC)c1O [etoposide] + OCCn1cc(-c2cnc3nnn(Cc4ccc5ncccc5c4)c3n2)cn1 [PF04217903] (first compound 0.02 µM, partner dose 1 µM)",67.7
5,"COc1cc([C@@H]2c3cc4c(cc3[C@@H](O[C@@H]3O[C@@H]5CO[C@@H](C)O[C@H]5[C@H](O)[C@H]3O)[C@H]3COC(=O)[C@H]23)OCO4)cc(OC)c1O [etoposide] + Cc1cc(N2CCOCC2)cc2[nH]c(-c3c(NC[C@@H](O)c4cccc(Cl)c4)cc[nH]c3=O)nc12 [BMS536924] (first compound 0.02 µM, partner dose 0.2 µM)",176
6,"O=c1[nH]nc(Sc2ncc([N+](=O)[O-])s2)n1-c1ccc2c(c1)OCCO2 + O=C(CCCCCCC(=O)Nc1ccccc1)NO [vorinostat] (first compound 0.2 µM, partner dose 0.08 µM)",90.5
7,"Cc1ccc(Nc2nccc(N(C)c3ccc4c(C)n(C)nc4c3)n2)cc1S(N)(=O)=O [Pazopanib] + CO[C@@H]1[C@H](N(C)C(=O)c2ccccc2)C[C@H]2O[C@]1(C)n1c3ccccc3c3c4c(c5c6ccccc6n2c5c31)C(=O)NC4 [Midostaurin] (first compound 0.4 µM, partner dose 0.08 µM)",98.6
8,"N#CC[C@H](C1CCCC1)n1cc(-c2ncnc3[nH]ccc23)cn1 [ruxolitinib] + Cc1cc(N2CCOCC2)cc2[nH]c(-c3c(NC[C@@H](O)c4cccc(Cl)c4)cc[nH]c3=O)nc12 [BMS536924] (first compound 1 µM, partner dose 0.2 µM)",104
9,"COc1cc([C@@H]2c3cc4c(cc3[C@@H](O[C@@H]3O[C@@H]5CO[C@@H](C)O[C@H]5[C@H](O)[C@H]3O)[C@H]3COC(=O)[C@H]23)OCO4)cc(OC)c1O [etoposide] + CO[C@@H]1[C@H](N(C)C(=O)c2ccccc2)C[C@H]2O[C@]1(C)n1c3ccccc3c3c4c(c5c6ccccc6n2c5c31)C(=O)NC4 [Midostaurin] (first compound 0.02 µM, partner dose 0.08 µM)",117
10,"COc1cc([C@@H]2c3cc4c(cc3[C@@H](O[C@@H]3O[C@@H]5CO[C@@H](C)O[C@H]5[C@H](O)[C@H]3O)[C@H]3COC(=O)[C@H]23)OCO4)cc(OC)c1O [etoposide] + O=C(Nc1cccc(Cl)c1)Nc1ncc(CCNc2ncnc3ccsc23)s1 [SNS314] (first compound 0.02 µM, partner dose 0.0008 µM)",45
11,"CCCCCCCCCCCCCCCCCCOP(=O)([O-])OC1CC[N+](C)(C)CC1 [Perifosine] + NC(=O)Nc1cc(-c2cccc(F)c2)sc1C(=O)N[C@H]1CCCNC1 [AZD7762] (first compound 0.4 µM, partner dose 0.02 µM)",319
12,"O=C(/C=C/c1cccnc1)NCCCCC1CCN(C(=O)c2ccccc2)CC1 + CO[C@@H]1[C@H](N(C)C(=O)c2ccccc2)C[C@H]2O[C@]1(C)n1c3ccccc3c3c4c(c5c6ccccc6n2c5c31)C(=O)NC4 [Midostaurin] (first compound 0.01 µM, partner dose 0.08 µM)",155
13,"CC[C@]1(O)C[C@H]2CN(CCc3c([nH]c4ccccc34)[C@@](C(=O)OC)(c3cc4c(cc3OC)N(C=O)[C@H]3[C@@](O)(C(=O)OC)[C@H](OC(C)=O)[C@]5(CC)C=CCN6CC[C@]43[C@@H]65)C2)C1 [vincristine] + CN(C)S(=O)(=O)c1ccc2c(c1)/C(=C/c1cc3c([nH]1)CCCC3)C(=O)N2 [SU6656] (first compound 0.0001 µM, partner dose 0.4 µM)",186
14,"O=C(/C=C/c1cccnc1)NCCCCC1CCN(C(=O)c2ccccc2)CC1 + CN(C)S(=O)(=O)c1ccc2c(c1)/C(=C/c1cc3c([nH]1)CCCC3)C(=O)N2 [SU6656] (first compound 0.01 µM, partner dose 0.4 µM)",28.5
15,"Cc1ccc(Nc2nccc(N(C)c3ccc4c(C)n(C)nc4c3)n2)cc1S(N)(=O)=O [Pazopanib] + NC(=O)Nc1cc(-c2cccc(F)c2)sc1C(=O)N[C@H]1CCCNC1 [AZD7762] (first compound 0.4 µM, partner dose 0.02 µM)",357
16,"Cc1cn(-c2cc(NC(=O)c3ccc(C)c(Nc4nccc(-c5cccnc5)n4)c3)cc(C(F)(F)F)c2)cn1 [nilotinib] + NC(=O)Nc1cc(-c2cccc(F)c2)sc1C(=O)N[C@H]1CCCNC1 [AZD7762] (first compound 0.2 µM, partner dose 0.02 µM)",540
17,"CCCCCCCCCCCCCCCCCCOP(=O)([O-])OC1CC[N+](C)(C)CC1 [Perifosine] + C[C@@H]1CCN(C(=O)CC#N)C[C@@H]1N(C)c1ncnc2[nH]ccc12 [CP690550] (first compound 0.4 µM, partner dose 1 µM)",374
18,"N#CC[C@H](C1CCCC1)n1cc(-c2ncnc3[nH]ccc23)cn1 [ruxolitinib] + C[C@@H]1CCN(C(=O)CC#N)C[C@@H]1N(C)c1ncnc2[nH]ccc12 [CP690550] (first compound 1 µM, partner dose 1 µM)",20
19,"COc1cc([C@@H]2c3cc4c(cc3[C@@H](O[C@@H]3O[C@@H]5CO[C@@H](C)O[C@H]5[C@H](O)[C@H]3O)[C@H]3COC(=O)[C@H]23)OCO4)cc(OC)c1O [etoposide] + Cn1cncc1[C@@](N)(c1ccc(Cl)cc1)c1ccc2c(c1)c(-c1cccc(Cl)c1)cc(=O)n2C [tipifarnib] (first compound 0.02 µM, partner dose 0.01 µM)",119
20,"N#CC[C@H](C1CCCC1)n1cc(-c2ncnc3[nH]ccc23)cn1 [ruxolitinib] + Cc1ccc(NC(=O)c2cccc(N(C)C)c2)cc1NC(=O)c1ccc(O)cc1 [ZM336372] (first compound 1 µM, partner dose 2 µM)",125
21,"N#CC[C@H](C1CCCC1)n1cc(-c2ncnc3[nH]ccc23)cn1 [ruxolitinib] + COc1cc2c(Oc3ccc4[nH]c(C)cc4c3F)ncnc2cc1OCCCN1CCCC1 [cediranib] (first compound 1 µM, partner dose 0.4 µM)",133
22,"O=c1[nH]nc(Sc2ncc([N+](=O)[O-])s2)n1-c1ccc2c(c1)OCCO2 + O=C(O)c1ccc(-c2c[nH]c3ncc(-c4ccccc4)cc23)cc1C1CCCC1 [GSK650394] (first compound 0.2 µM, partner dose 0.16 µM)",107
23,"Cc1cc(Nc2cc(N3CCN(C)CC3)nc(Sc3ccc(NC(=O)C4CC4)cc3)n2)n[nH]1 [Tozasertib] + COc1cc2c(Oc3ccc4[nH]c(C)cc4c3F)ncnc2cc1OCCCN1CCCC1 [cediranib] (first compound 0.006 µM, partner dose 0.4 µM)",123
24,"O=c1[nH]nc(Sc2ncc([N+](=O)[O-])s2)n1-c1ccc2c(c1)OCCO2 + NCC(=O)Nc1ccc(-n2nc(C(F)(F)F)cc2-c2ccc3c(ccc4ccccc43)c2)cc1 [OSU03012] (first compound 0.2 µM, partner dose 1 µM)",2970
25,"N#CC[C@H](C1CCCC1)n1cc(-c2ncnc3[nH]ccc23)cn1 [ruxolitinib] + CN(C)S(=O)(=O)c1ccc2c(c1)/C(=C/c1cc3c([nH]1)CCCC3)C(=O)N2 [SU6656] (first compound 1 µM, partner dose 0.4 µM)",29.8
26,"CC[C@]1(O)C[C@H]2CN(CCc3c([nH]c4ccccc34)[C@@](C(=O)OC)(c3cc4c(cc3OC)N(C=O)[C@H]3[C@@](O)(C(=O)OC)[C@H](OC(C)=O)[C@]5(CC)C=CCN6CC[C@]43[C@@H]65)C2)C1 [vincristine] + O=C(Nc1cccc(Cl)c1)Nc1ncc(CCNc2ncnc3ccsc23)s1 [SNS314] (first compound 0.0001 µM, partner dose 0.0008 µM)",247

# A run of entries from the list above:
row,SMILES,cleaved PARP positive nuclei fraction [%]
12,"O=C(/C=C/c1cccnc1)NCCCCC1CCN(C(=O)c2ccccc2)CC1 + CO[C@@H]1[C@H](N(C)C(=O)c2ccccc2)C[C@H]2O[C@]1(C)n1c3ccccc3c3c4c(c5c6ccccc6n2c5c31)C(=O)NC4 [Midostaurin] (first compound 0.01 µM, partner dose 0.08 µM)",155
13,"CC[C@]1(O)C[C@H]2CN(CCc3c([nH]c4ccccc34)[C@@](C(=O)OC)(c3cc4c(cc3OC)N(C=O)[C@H]3[C@@](O)(C(=O)OC)[C@H](OC(C)=O)[C@]5(CC)C=CCN6CC[C@]43[C@@H]65)C2)C1 [vincristine] + CN(C)S(=O)(=O)c1ccc2c(c1)/C(=C/c1cc3c([nH]1)CCCC3)C(=O)N2 [SU6656] (first compound 0.0001 µM, partner dose 0.4 µM)",186
